Measured values taken from the supplement of paper PMC12067093, “Discovery and optimisation of a covalent ligand for TRIM25 and its application to targeted protein ubiquitination” (Chemical Science, 2025).
The list shows a part of the results.

Sequences of proteins named here, by UniProt entry; tags and fusion partners are left off. A change or cut given only in a name is not applied to a line headed by its entry.
UniProt Q9NPG3, whole entry, looked up: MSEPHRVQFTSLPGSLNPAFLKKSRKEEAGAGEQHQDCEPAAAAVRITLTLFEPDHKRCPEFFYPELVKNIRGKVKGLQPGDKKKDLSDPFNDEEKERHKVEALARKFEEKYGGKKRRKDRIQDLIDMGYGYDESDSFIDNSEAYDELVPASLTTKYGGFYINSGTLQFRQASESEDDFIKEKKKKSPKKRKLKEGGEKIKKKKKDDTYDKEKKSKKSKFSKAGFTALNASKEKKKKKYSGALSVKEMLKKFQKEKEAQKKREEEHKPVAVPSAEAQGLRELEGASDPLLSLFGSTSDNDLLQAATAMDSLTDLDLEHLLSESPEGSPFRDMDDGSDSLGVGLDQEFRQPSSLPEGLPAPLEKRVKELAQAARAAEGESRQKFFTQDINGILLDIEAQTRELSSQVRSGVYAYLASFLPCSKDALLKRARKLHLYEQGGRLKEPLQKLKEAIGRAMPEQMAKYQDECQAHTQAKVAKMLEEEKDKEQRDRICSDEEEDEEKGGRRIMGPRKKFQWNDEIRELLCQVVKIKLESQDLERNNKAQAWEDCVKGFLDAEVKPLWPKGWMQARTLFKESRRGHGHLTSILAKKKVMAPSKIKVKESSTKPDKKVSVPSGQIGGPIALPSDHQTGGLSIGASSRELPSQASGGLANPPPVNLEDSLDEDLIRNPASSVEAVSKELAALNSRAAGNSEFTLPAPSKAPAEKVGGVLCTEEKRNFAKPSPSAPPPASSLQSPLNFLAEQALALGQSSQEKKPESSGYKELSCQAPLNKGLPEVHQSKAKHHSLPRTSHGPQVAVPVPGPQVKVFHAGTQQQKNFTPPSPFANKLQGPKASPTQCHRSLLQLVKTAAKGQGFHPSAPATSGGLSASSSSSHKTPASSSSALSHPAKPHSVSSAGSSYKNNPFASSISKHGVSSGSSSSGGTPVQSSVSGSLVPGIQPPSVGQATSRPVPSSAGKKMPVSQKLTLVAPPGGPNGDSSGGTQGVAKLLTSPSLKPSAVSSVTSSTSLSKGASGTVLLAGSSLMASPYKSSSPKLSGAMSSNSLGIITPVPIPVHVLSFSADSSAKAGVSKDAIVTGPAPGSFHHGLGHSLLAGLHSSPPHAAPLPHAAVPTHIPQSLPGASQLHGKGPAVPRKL
UniProt O95071: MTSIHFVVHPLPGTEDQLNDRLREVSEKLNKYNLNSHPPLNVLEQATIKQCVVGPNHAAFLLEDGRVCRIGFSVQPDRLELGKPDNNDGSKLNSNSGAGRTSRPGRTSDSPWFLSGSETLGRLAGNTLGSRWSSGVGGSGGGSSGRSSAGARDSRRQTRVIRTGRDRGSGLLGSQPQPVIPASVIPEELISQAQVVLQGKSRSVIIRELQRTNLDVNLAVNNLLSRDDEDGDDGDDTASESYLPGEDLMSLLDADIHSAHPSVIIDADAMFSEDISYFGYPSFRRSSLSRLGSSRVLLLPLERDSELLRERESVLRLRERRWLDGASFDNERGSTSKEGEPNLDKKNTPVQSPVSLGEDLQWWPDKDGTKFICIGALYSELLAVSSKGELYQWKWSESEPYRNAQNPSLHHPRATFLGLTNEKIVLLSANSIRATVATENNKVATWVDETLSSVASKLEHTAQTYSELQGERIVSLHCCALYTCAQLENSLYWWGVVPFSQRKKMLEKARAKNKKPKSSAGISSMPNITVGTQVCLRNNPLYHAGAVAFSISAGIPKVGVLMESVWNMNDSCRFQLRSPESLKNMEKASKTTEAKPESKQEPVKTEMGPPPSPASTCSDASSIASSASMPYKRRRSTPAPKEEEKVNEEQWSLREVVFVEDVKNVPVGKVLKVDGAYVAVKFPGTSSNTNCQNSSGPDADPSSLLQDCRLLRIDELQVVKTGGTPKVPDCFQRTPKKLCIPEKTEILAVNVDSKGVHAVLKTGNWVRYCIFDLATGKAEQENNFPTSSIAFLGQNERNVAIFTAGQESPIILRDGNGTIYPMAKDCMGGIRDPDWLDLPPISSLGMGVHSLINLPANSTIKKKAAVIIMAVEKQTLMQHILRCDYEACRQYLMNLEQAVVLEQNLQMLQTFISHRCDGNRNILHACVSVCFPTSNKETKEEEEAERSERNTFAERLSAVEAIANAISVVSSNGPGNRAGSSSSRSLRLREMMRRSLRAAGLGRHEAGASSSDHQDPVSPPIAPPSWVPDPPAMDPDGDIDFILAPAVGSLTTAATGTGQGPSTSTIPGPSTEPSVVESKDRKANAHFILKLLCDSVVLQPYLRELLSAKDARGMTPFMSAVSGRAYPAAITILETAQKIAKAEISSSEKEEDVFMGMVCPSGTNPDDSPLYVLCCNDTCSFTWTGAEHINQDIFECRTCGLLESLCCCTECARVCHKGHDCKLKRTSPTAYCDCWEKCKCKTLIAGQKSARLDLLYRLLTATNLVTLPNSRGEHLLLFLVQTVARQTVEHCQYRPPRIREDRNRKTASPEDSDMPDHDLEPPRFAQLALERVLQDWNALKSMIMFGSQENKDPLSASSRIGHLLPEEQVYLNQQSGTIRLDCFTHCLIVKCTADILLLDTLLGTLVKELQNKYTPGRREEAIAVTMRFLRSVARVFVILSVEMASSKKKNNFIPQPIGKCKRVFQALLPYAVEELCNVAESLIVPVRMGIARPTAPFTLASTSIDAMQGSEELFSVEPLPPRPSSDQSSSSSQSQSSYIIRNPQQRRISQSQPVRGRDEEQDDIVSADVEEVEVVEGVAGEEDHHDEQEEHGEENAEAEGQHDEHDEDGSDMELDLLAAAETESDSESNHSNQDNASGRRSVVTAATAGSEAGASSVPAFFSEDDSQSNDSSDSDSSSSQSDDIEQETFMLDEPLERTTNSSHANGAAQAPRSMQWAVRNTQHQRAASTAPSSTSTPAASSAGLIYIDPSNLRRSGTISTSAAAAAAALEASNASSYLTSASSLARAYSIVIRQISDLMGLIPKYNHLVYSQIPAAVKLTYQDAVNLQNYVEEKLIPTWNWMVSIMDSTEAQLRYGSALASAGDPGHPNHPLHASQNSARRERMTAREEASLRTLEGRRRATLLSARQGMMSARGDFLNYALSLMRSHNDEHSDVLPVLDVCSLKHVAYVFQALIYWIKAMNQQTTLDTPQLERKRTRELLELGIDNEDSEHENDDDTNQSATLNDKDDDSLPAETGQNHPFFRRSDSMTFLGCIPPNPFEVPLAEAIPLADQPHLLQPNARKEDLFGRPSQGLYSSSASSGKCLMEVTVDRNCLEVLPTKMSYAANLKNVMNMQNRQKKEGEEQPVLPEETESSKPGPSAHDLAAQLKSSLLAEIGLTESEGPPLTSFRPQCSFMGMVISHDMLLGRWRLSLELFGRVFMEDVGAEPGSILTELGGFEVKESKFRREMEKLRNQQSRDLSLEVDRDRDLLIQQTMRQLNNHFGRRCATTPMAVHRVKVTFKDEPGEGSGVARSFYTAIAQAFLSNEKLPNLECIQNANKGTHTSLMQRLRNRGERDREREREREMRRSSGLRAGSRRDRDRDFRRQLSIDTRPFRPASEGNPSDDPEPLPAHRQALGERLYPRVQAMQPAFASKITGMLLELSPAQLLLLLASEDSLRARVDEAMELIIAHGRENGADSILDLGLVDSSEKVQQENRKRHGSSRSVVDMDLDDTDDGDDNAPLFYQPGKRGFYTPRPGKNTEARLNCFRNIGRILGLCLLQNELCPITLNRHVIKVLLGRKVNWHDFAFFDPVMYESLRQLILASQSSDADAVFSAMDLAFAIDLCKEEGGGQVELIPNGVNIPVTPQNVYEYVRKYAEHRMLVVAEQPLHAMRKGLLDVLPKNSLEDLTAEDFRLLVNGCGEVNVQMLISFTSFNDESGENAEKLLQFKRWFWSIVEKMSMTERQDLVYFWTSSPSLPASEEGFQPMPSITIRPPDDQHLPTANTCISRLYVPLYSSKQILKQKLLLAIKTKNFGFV
UniProt Q8NBS9: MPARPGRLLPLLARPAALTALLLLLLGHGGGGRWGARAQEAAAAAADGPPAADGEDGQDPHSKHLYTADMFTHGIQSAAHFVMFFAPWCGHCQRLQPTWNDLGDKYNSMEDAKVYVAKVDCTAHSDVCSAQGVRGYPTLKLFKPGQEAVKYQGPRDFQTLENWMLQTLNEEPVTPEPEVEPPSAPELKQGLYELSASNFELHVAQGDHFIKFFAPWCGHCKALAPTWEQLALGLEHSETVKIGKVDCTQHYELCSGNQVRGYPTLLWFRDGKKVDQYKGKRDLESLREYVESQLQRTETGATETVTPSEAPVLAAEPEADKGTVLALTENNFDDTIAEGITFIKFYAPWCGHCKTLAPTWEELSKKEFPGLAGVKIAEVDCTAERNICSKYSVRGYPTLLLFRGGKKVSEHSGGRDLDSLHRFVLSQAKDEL
UniProt O14933: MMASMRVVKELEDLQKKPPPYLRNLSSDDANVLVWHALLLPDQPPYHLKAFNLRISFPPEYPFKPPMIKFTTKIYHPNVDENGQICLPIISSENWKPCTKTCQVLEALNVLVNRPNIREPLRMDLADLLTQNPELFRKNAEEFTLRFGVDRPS
UniProt Q3KQV9: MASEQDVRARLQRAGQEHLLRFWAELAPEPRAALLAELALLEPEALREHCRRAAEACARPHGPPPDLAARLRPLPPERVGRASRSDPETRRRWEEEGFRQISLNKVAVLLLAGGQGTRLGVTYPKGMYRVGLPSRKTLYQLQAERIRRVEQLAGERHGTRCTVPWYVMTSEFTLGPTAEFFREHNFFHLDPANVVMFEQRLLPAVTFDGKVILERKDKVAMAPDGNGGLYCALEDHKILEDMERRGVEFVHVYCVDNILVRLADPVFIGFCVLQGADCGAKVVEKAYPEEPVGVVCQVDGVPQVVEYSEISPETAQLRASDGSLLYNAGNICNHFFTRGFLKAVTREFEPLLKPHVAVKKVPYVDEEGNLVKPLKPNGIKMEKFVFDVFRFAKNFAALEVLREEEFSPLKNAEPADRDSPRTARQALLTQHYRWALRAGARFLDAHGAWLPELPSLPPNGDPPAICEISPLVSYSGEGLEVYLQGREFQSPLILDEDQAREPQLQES
UniProt Q9C0C9: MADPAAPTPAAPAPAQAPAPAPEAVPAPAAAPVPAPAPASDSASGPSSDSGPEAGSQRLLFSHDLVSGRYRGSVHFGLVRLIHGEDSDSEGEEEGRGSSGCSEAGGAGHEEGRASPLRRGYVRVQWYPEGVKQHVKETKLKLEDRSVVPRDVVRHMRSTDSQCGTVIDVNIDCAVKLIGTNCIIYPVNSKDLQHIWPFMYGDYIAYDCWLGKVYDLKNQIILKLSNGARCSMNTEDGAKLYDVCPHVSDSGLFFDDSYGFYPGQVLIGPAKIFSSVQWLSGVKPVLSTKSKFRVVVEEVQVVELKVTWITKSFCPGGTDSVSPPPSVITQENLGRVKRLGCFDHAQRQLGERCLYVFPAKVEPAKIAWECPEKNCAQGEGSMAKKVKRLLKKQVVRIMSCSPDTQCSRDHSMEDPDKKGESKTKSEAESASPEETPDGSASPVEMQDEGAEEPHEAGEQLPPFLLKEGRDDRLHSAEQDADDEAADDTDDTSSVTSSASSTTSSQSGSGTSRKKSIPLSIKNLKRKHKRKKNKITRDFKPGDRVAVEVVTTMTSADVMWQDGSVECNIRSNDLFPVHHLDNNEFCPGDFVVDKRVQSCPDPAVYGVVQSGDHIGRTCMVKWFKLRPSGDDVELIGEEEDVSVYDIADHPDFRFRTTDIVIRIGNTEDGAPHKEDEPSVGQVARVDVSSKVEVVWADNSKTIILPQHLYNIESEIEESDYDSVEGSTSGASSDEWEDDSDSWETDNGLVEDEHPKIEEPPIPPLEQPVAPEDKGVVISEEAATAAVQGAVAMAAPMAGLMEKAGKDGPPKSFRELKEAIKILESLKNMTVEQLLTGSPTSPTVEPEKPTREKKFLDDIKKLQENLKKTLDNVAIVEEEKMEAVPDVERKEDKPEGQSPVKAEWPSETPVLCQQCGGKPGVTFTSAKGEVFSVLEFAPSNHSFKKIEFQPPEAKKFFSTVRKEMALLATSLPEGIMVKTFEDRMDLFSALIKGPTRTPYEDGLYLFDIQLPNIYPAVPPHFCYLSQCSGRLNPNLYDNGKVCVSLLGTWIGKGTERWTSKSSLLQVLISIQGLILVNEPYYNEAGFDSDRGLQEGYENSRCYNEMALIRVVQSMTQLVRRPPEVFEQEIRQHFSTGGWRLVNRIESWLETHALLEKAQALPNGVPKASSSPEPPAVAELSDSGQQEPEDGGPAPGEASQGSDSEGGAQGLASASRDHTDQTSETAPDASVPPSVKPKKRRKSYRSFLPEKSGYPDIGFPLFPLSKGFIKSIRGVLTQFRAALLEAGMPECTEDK
UniProt Q9NPD8: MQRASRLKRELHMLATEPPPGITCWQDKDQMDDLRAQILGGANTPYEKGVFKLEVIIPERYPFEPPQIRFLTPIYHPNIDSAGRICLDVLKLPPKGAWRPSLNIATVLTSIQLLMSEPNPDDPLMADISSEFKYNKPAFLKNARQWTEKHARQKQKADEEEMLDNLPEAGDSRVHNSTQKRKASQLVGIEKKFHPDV

Compound: CC1Cc2ccccc2N1C(=O)C1CCCN(C1)C(=O)CCl (mixture of isomers) [TRIM25 ligand 11 (diastereomer mixture)]
Experiment: probe-labelled cysteine peptide fold change vs DMSO (competition) (log2 fold change); higher = less target engagement (more negative = stronger competition)
Conditions: THP-1, incubation time: 4 h
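Also: competitive chemoproteomic profiling in live THP-1 cells with an iodoacetamide desthiobiotin (IA-DTB) probe, comparing probe-labelled peptide intensities in compound-treated cells against DMSO-treated controls.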

## UBR3_Q6ZT12_1289_KLPISEEEQIYPWDTCAAVHDVR (UniProt Q6ZT12)
10 µM
  probe-labelled cysteine peptide fold change: 0.00826
50 µM
  probe-labelled cysteine peptide fold change: 0.0925

## UBE2K_P61086_92_IWHPNISSVTGAICLDILK (UniProt P61086)
10 µM
  probe-labelled cysteine peptide fold change: 0.107
50 µM
  probe-labelled cysteine peptide fold change: 0.238

## UBN1_Q9NPG3_765_ELSCQAPLNK (UniProt Q9NPG3)
10 µM
  probe-labelled cysteine peptide fold change: 0.0394
50 µM
  probe-labelled cysteine peptide fold change: -0.0866

## TYK2_P29597_936_ADCGPQHR (UniProt P29597)
10 µM
  probe-labelled cysteine peptide fold change: 0.0163
50 µM
  probe-labelled cysteine peptide fold change: -0.00962

## TYK2_P29597_291_LLAQAEGEPCYIR (UniProt P29597)
10 µM
  probe-labelled cysteine peptide fold change: 0.033
50 µM
  probe-labelled cysteine peptide fold change: -0.0777

## UBASH3B_Q8TF42_130+135_AHNIFPHITLCQFFMCEDSKVDALGEALQTTVSR (UniProt Q8TF42)
10 µM
  probe-labelled cysteine peptide fold change: -0.0969
50 µM
  probe-labelled cysteine peptide fold change: -0.326

## UACA_Q9BZF9_125_LLQYNCPTEHADLQGR (UniProt Q9BZF9)
10 µM
  probe-labelled cysteine peptide fold change: -0.101
50 µM
  probe-labelled cysteine peptide fold change: -0.0801

## UBE2M_P61081_111_CETMVYHPNIDLEGNVCLNILR (UniProt P61081)
10 µM
  probe-labelled cysteine peptide fold change: 0.0742
50 µM
  probe-labelled cysteine peptide fold change: 0.0219

## UBR1_Q8IWV7_1197+1200_IHVDLFDLESGEYLCPLCK (UniProt Q8IWV7)
10 µM
  probe-labelled cysteine peptide fold change: -0.0282
50 µM
  probe-labelled cysteine peptide fold change: -0.219

## UBR1_Q8IWV7_574_CSTSFISSSK (UniProt Q8IWV7)
10 µM
  probe-labelled cysteine peptide fold change: 0.126
50 µM
  probe-labelled cysteine peptide fold change: 0.22

## UBAP1_Q9NZ09_434_GENIEQILDYLFAHGQLCEK (UniProt Q9NZ09)
10 µM
  probe-labelled cysteine peptide fold change: -0.0983
50 µM
  probe-labelled cysteine peptide fold change: -0.0923

## TXNRD2_Q9NNW7_168_ASFVDEHTVCGVAK (UniProt Q9NNW7)
10 µM
  probe-labelled cysteine peptide fold change: 0.102
50 µM
  probe-labelled cysteine peptide fold change: 0.0705

## UBR5_O95071_1291_QTVEHCQYRPPR (UniProt O95071)
10 µM
  probe-labelled cysteine peptide fold change: 0.168
50 µM
  probe-labelled cysteine peptide fold change: 0.134

## UBR1_Q8IWV7_1726_LHLVWQQHCIIEEIAR (UniProt Q8IWV7)
10 µM
  probe-labelled cysteine peptide fold change: -0.0216
50 µM
  probe-labelled cysteine peptide fold change: 0.0386

## UBA2_Q9UBT2_129_MCLAADVPLIESGTAGYLGQVTTIKK (UniProt Q9UBT2)
10 µM
  probe-labelled cysteine peptide fold change: -0.0291
50 µM
  probe-labelled cysteine peptide fold change: 0.0486

## UBA6_A0AVT1_625_GHTEVIVPHLTESYNSHRDPPEEEIPFCTLK
10 µM
  probe-labelled cysteine peptide fold change: 0.249
50 µM
  probe-labelled cysteine peptide fold change: 0.0194

## TXNDC5_Q8NBS9_353_FYAPWCGHCK (UniProt Q8NBS9)
10 µM
  probe-labelled cysteine peptide fold change: -0.105
50 µM
  probe-labelled cysteine peptide fold change: -0.393

## UBR1_Q8IWV7_99_HSGAFQLCGR (UniProt Q8IWV7)
10 µM
  probe-labelled cysteine peptide fold change: 0.0396
50 µM
  probe-labelled cysteine peptide fold change: 0.0213

## UBR2_Q8IWV8_115_DCAVDPTCVLCMECFLGSIHR (UniProt Q8IWV8)
10 µM
  probe-labelled cysteine peptide fold change: -0.0634
50 µM
  probe-labelled cysteine peptide fold change: 0.0238

## TYK2_P29597_278_VPVCHLR (UniProt P29597)
10 µM
  probe-labelled cysteine peptide fold change: -0.0755
50 µM
  probe-labelled cysteine peptide fold change: -0.0104

## UBA3_Q8TBC4_139_VPNCNVVPHFNK (UniProt Q8TBC4)
10 µM
  probe-labelled cysteine peptide fold change: 0.0786
50 µM
  probe-labelled cysteine peptide fold change: -0.0206

## UBE2L6_O14933_86+98_IYHPNVDENGQICLPIISSENWKPCTK (UniProt O14933)
10 µM
  probe-labelled cysteine peptide fold change: -0.249
50 µM
  probe-labelled cysteine peptide fold change: -0.545

## UAP1L1_Q3KQV9_271_LADPVFIGFCVLQGADCGAK (UniProt Q3KQV9)
10 µM
  probe-labelled cysteine peptide fold change: -0.0621
50 µM
  probe-labelled cysteine peptide fold change: -0.144

## UBE2R2_Q712K3_191_VPTTLAEYCIK (UniProt Q712K3)
10 µM
  probe-labelled cysteine peptide fold change: 0.0926
50 µM
  probe-labelled cysteine peptide fold change: -0.145

## UBN1_Q9NPG3_38_EEAGAGEQHQDCEPAAAAVR (UniProt Q9NPG3)
10 µM
  probe-labelled cysteine peptide fold change: 0.0183
50 µM
  probe-labelled cysteine peptide fold change: -0.166

## U2SURP_O15042_65_ESLCDSPHQNLSR (UniProt O15042)
10 µM
  probe-labelled cysteine peptide fold change: 0.0928
50 µM
  probe-labelled cysteine peptide fold change: 0.0959

## UBE2O_Q9C0C9_585_SNDLFPVHHLDNNEFCPGDFVVDKR (UniProt Q9C0C9)
10 µM
  probe-labelled cysteine peptide fold change: -0.124
50 µM
  probe-labelled cysteine peptide fold change: -0.0665

## UBA1_P22314_1040_ALVLELCCNDESGEDVEVPYVR (UniProt P22314)
10 µM
  probe-labelled cysteine peptide fold change: 0.14
50 µM
  probe-labelled cysteine peptide fold change: 0.0716

## UBAP2_Q5T6F2_71_NQDECIVALHDCNGDVNK (UniProt Q5T6F2)
10 µM
  probe-labelled cysteine peptide fold change: -0.147
50 µM
  probe-labelled cysteine peptide fold change: -0.158

## UBE2T_Q9NPD8_86_ICLDVLK (UniProt Q9NPD8)
10 µM
  probe-labelled cysteine peptide fold change: -0.00663
50 µM
  probe-labelled cysteine peptide fold change: 0.103

## UBA7_P41226_145_HGVCFLAADTR (UniProt P41226)
10 µM
  probe-labelled cysteine peptide fold change: 0.0658
50 µM
  probe-labelled cysteine peptide fold change: 0.179

## UBE3C_Q15386_1018_FVTSCSRPPLLGFK (UniProt Q15386)
10 µM
  probe-labelled cysteine peptide fold change: -0.0534
50 µM
  probe-labelled cysteine peptide fold change: 0.0104

## UBA7_P41226_829_CQNYGIPPVNR (UniProt P41226)
10 µM
  probe-labelled cysteine peptide fold change: 0.043
50 µM
  probe-labelled cysteine peptide fold change: -0.0864

## UBASH3B_Q8TF42_70_SVQAACDWLFSHVGDPFLDDPLPR (UniProt Q8TF42)
10 µM
  probe-labelled cysteine peptide fold change: 0.281
50 µM
  probe-labelled cysteine peptide fold change: 0.0133

## TYMP_P19971_361_ALCSGSPAER (UniProt P19971)
10 µM
  probe-labelled cysteine peptide fold change: 0.00417
50 µM
  probe-labelled cysteine peptide fold change: 0.154

## UBR5_O95071_1093_LLCDSVVLQPYLR (UniProt O95071)
10 µM
  probe-labelled cysteine peptide fold change: -0.0536
50 µM
  probe-labelled cysteine peptide fold change: -0.0369

## UBE2O_Q9C0C9_163_STDSQCGTVIDVNIDCAVK (UniProt Q9C0C9)
10 µM
  probe-labelled cysteine peptide fold change: 0.00125
50 µM
  probe-labelled cysteine peptide fold change: 0.126

## UAP1L1_Q3KQV9_278_LADPVFIGFCVLQGADCGAK (UniProt Q3KQV9)
10 µM
  probe-labelled cysteine peptide fold change: 0.162
50 µM
  probe-labelled cysteine peptide fold change: 0.0886
